Measured values from patent US20250100977A1, “MERCAPTOPYRIMIDINE COMPOUNDS THAT INHIBIT NONHOMOLOGOUS END JOINING AND METHODS THEREOF” (INDIAN INSTITUTE OF SCIENCE, priority 2021, published 2025).
Some entries share one result that the patent states for a list of compounds.

The chains behind the UniProt entries cited, without tags or fusion partners. Where a name states a change or a piece, a line headed by the entry shows the natural chain unless it says otherwise.
UniProt P49917: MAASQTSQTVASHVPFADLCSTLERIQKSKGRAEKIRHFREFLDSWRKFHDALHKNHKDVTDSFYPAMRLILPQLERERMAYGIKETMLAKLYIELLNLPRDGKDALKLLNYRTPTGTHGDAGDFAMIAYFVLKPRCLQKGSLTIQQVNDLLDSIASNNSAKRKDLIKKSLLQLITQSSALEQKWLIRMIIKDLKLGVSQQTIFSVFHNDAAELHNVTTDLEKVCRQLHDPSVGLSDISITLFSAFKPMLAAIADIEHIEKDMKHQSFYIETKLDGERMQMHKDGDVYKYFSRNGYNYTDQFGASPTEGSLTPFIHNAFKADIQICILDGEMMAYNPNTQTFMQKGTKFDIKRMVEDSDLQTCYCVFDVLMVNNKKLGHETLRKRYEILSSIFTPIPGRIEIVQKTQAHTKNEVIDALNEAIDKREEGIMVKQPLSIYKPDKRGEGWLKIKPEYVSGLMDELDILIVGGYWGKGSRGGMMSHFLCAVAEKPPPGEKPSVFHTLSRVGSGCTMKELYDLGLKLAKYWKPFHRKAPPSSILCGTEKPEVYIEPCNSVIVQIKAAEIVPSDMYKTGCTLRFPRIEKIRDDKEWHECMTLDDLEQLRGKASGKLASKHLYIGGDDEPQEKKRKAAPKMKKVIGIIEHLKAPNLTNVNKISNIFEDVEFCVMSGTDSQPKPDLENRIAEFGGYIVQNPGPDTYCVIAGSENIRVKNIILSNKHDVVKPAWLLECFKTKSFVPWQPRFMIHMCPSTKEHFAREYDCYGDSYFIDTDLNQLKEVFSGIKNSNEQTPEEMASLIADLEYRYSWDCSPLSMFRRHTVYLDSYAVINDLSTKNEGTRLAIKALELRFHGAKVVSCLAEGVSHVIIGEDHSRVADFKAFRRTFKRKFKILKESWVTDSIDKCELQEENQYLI

Legend:
[1] = test system: Ligase IV knock out (KO) cell line N114; test: Cytotoxicity in Ligase IV knock out cell line N114; format: cell-based; details: 48 h; Ligase IV KO vs wild type
Method: Ligase IV specificity of the compounds of the present invention inside the cells were also determined using Ligase IV knock out (KO) cell line N114 compared to the wild type Nalm6 (Table 2, FIGS. 5C, D, E and F). […] Table 1 showing IC50 of SCR7 derivatives in cancer cell lines Nalm6 and HeLa. IC50 was calculated using GraphPad Prism software from the percentage of viable cells following treatment with the compounds at 48 h. Table 2 showing IC50 of SCR116 and SCR132 in a panel of 16 cancer cell lines.

DNA Ligase IV/XRCC4 = molecular target: T1, DNA Ligase IV/XRCC4 (Homo sapiens, UniProt P49917); test: Inhibition of end joining by purified DNA Ligase IV/XRCC4; format: biochemical; details: 50 μM vs SCR7
T1 construct: made in house; host or cells: bacteria
Method: The compounds of Formula I were evaluated for their specific inhibition activity towards enzyme DNA Ligase IV. DNA Ligase IV/XRCC4 was purified from bacteria using Ni-NTA column (FIG. 2A), and used for evaluation of inhibition of end joining of the compounds (01-41) at 200 μM (FIGS. 2B, C and D). The compounds were incubated with purified Ligase IV/XRCC4 in suitable NHEJ buffer at 25° C. for 30 min, followed by addition of radiolabeled DNA, and further incubation for 1 h at 25° C. Products were purified using phenol: chloroform and run on denaturing PAGE.
Effects of these compounds on NHEJ and Ligase IV mediated joining were evaluated (FIG. 4A-K). The reactions were terminated by EDTA (10 mM), products were purified using phenol/chloroform, precipitated with chilled ethanol and glycogen, and resolved on 8% denaturing PAGE. The gel was dried, exposed, and signal was detected using phosphor Imager FLA9000 (Fuji, Japan), and quantified in MultiGauge software expressed as Photo Stimulated Luminescence Units (PSLU). Inhibition of end joining was reported at 200 μM and 100 μM, respectively for SCR116 and SCR132 (FIGS. 4A, B, C and D), with >50% inhibition at 200 and 100 μM concentrations, respectively. […] FIG. 4K depict the purification profile of Ligase IV and XRCC4. […]

| Structure (SMILES) | Fold reduction (N114 compared to wild type Nalm6) [1] | Fold lower concentration for >50% inhibition than SCR7 (DNA Ligase IV/XRCC4) |
| --- | --- | --- |
| Nc1nc(S)nc(O)c1/N=C/c1sc(Cl)nc1Cl [Compound 32, (E)-6-amino-5-(((2,4-dichlorothiazol-5-yl)methylene)amino)-2-mercaptopyrimidin-4-ol] | 4-5 fold | up to 4 fold |
| Nc1nc(S)nc(O)c1/N=C/c1ccc([N+](=O)[O-])s1 [Compound 16, (E)-6-amino-2-mercapto-5-(((5-nitrothiophen-2-yl)methylene)amino)pyrimidin-4-ol] | 4-5 fold | up to 4 fold |
